Source: patent US20260294305A1, “METHOD FOR EX VIVO MEASURING GLOMERULAR FILTRATION RATE IN A SUBJECT” (Assistance Publique - Hôpitaux de Paris, priority 2023, published 2026)

Experiment: GFR measurement with iomeprol clearance assessed by CT urography (CT-mGFR), living kidney donor candidates
Format: in vivo
Protocol: This is a cross-sectional study using data from kidney donor candidates who were screened in hospital between July 2016 and October 2022, with both GFR measurement by iohexol clearance, and kidney morphology assessment by CT urogaphy.
All living kidney donor candidates investigated in Nephrology Department between July 2016 and October 2022, were eligible for inclusion. In accordance with the KDIGO guidelines (Lentine K L et al. ([11])), GFR was measured in all these individuals from iohexol clearance. […] The CT urography had to include 4 polychromatic acquisition phases (unenhanced, arterial, nephrographic, and excretory phases) with a monophasic injection of iomeprol at 350 or 400 mg of iodine per milliliter (Iomeron® 350 or 400, Bracco Imaging, Milano, Italy).
CT-mGFR was assessed by the same U×V/P calculation used to determine the urinary clearance of iohexol: the amount of iomeprol excreted through the urinary system during a given period of time was divided by the mean serum iomeprol concentration during the same period. The blood and urine concentration of iomeprol were assessed by attenuation measurement (Hounsfield Units, HU) in the different areas of interest. The time periods were derived from the acquisition time of the different phases. […] Manual segmentations of bladder, upper urinary tracts and kidneys were performed using the Advantage Windows software (Advantage Window v4.7; GE Healthcare, Buc, France), using different thresholds depending on the CT phase and then manually finalized. For non-contrast and portal venous phase: only a lower limit was set to 0 HU, in order to exclude fat pixels. For excretory phases: a specific threshold was adapted for each patient based on visual analysis in order to reduce extra-urinary pixels as much as possible. Also, the lower threshold used for upper excretory tract was used as the higher threshold for kidney segmentation to avoid overlap in segmentations. The urinary excretion rate of iomeprol between arterial and excretory phases (U×V, expressed as HU/min) was calculated from urinary excretion of iomeprol into the bladder (Uexcr-Bladder), urinary excretion of iomeprol into the upper excretory tract (calyces, pelvis, ureters) (Uexcr-tract), and urinary excretion of iomeprol into the kidney tubules (Uexcr-tubules): U×V=Uexcr-Bladder+Uexcr-tract+Uexcr-tubules. Uexcr-bladder was the volume of the bladder at the excretory phase (Bladder-Volume) multiplied by the mean CT-attenuation of the bladder at the excretory phase (HU-Bladder-excr) minus the CT-attenuation of the urine in bladder at the unenhanced phase (HU-Bladder-unenhanced), then divided by the time period between the excretory phase and the arterial phase (time period): Uexcr-Bladder=Bladder-volume×(HU-Bladder-excr−HU-Bladder-unenhanced)/time period. When the bladder was not included on the unenhanced phase, urine CT-attenuation could be measured on the nephrographic phase, the urine density at the nephrographic phase being slightly higher than at the unenhanced phase, but without clinical consequence on the CT-mGFR calculation. Uexcr-tract was determined in the same way by studying the upper excretory tract (calyces, pelvis, ureters) instead of the bladder. […] The denominator of the U×V/P equation, was the calculated serum iomeprol concentration at the midpoint of the period between the arterial and excretory phases. […]

SMILES: CN(C(=O)CO)c1c(I)c(C(=O)NCC(O)CO)c(I)c(C(=O)NCC(O)CO)c1I (centres unmarked) [iomeprol]
- CT-attenuation value of the aorta at the arterial phase (mean ± SD): 311.2 ± 83.0 HU
- CT-attenuation value of the bladder at the excretory phase (median [IQR]): 363.6 HU
- Lin's CCC, CT-mGFR vs mGFR (vs iohexol clearance, 95% CI (0.653; 0.845)): 0.766
- Absolute bias, mean, CT-mGFR vs mGFR (vs iohexol clearance, 95% CI (−1.9; 4.1)): 1.1 ml/min/1.73 m2
- IQR of the bias [Q1; Q3], CT-mGFR vs mGFR (vs iohexol clearance, [−6.6, 9.6]): 16.2 ml/min/1.73 m2
